Experimental data reported in the supplement of paper PMC4604168 (melanoma cell lines).
The other results are listed elsewhere or left out. Repeats are few or missing, and single values can be far off.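 The apoptosis fraction was the count of cleaved-PARP antibody-stained nuclei relative to all DNA-stained nuclei, imaged in 1,536-well plates. Screening doses were set so most cells survived, and baseline and induced cleaved-PARP levels vary greatly across cell lines.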

How the values were obtained:
Experiment in all cases: cleaved PARP positive nuclei fraction relative to DMSO control; melanoma cells; higher = more apoptosis
Details in all cases: library dose: low library concentration; 72 h
MZ2-MEL = test system: MZ2-MEL
MeWo = test system: MeWo
RPMI7951 = test system: RPMI7951
RVH-421 = test system: RVH-421
SkMel28 = test system: SkMel28
SkMel30 = test system: SkMel30
SkMel5 = test system: SkMel5
UACC257 = test system: UACC257
UACC62 = test system: UACC62
WM115 = test system: WM115
WM1716 = test system: WM1716
WM1745 = test system: WM1745
WM3526 = test system: WM3526
WM3619 = test system: WM3619
WM451Lu = test system: WM451Lu

Row | Compound | cleaved PARP positive nuclei fraction (MZ2-MEL) [%] | cleaved PARP positive nuclei fraction (MeWo) [%] | cleaved PARP positive nuclei fraction (RPMI7951) [%] | cleaved PARP positive nuclei fraction (RVH-421) [%] | cleaved PARP positive nuclei fraction (SkMel28) [%] | cleaved PARP positive nuclei fraction (SkMel30) [%] | cleaved PARP positive nuclei fraction (SkMel5) [%] | cleaved PARP positive nuclei fraction (UACC257) [%] | cleaved PARP positive nuclei fraction (UACC62) [%] | cleaved PARP positive nuclei fraction (WM115) [%] | cleaved PARP positive nuclei fraction (WM1716) [%] | cleaved PARP positive nuclei fraction (WM1745) [%] | cleaved PARP positive nuclei fraction (WM3526) [%] | cleaved PARP positive nuclei fraction (WM3619) [%] | cleaved PARP positive nuclei fraction (WM451Lu) [%]
1 | C[C@]12O[C@H](C[C@]1(O)CO)n1c3ccccc3c3c4c(c5c6ccccc6n2c5c31)CNC4=O [Lestaurtinib] + N#Cc1c(O)c2c(-c3ccc(-c4ccccc4O)cc3)csc2[nH]c1=O [A769662] (first compound 0.004 µM, partner dose 2 µM) | 96.5 | 88.7 | 128 | 36.6 | 143 | 69 | 137 | 249 | 138 | 97.8 | 52.2 | 104 | 86.8 | 105 | 54.6
2 | C[C@]12O[C@H](C[C@]1(O)CO)n1c3ccccc3c3c4c(c5c6ccccc6n2c5c31)CNC4=O [Lestaurtinib] + Cn1cncc1[C@@](N)(c1ccc(Cl)cc1)c1ccc2c(c1)c(-c1cccc(Cl)c1)cc(=O)n2C [tipifarnib] (first compound 0.004 µM, partner dose 0.01 µM) | 91.9 | 115 | 166 | 244 | 69.4 | 75.2 | 127 | 209 | 382 | 93.4 | 142 | 95.8 | 66.4 | 107 | 109
3 | CCc1ccc(CCOc2ccc(CC3SC(=O)NC3=O)cc2)nc1 (stereo not drawn) [pioglitazone] + C/C(O)=C(\C#N)C(=O)Nc1cc(Br)ccc1Br [LFM-A13] (first compound 2 µM, partner dose 2 µM) | 70 | 67.6 | 89.6 | 121 | 341 | 39.8 | 59 | 165 | 43.6 | 99.2 | 65.3 | 130 | 80.3 | 170 | 120
4 | C[C@]12O[C@H](C[C@]1(O)CO)n1c3ccccc3c3c4c(c5c6ccccc6n2c5c31)CNC4=O [Lestaurtinib] + COc1cc(Nc2ncc(F)c(Nc3ccc4c(n3)NC(=O)C(C)(C)O4)n2)cc(OC)c1OC [Tamatinib] (first compound 0.004 µM, partner dose 0.4 µM) | 125 | 211 | 156 | 49.7 | 66.7 | 144 | 53.8 | 317 | 51.7 | 62.1 | 146 | 130 | 63.1 | 90.7 | 58
5 | O=C(O)c1ccc(-c2c[nH]c3ncc(-c4ccccc4)cc23)cc1C1CCCC1 + C/C(O)=C(\C#N)C(=O)Nc1cc(Br)ccc1Br [LFM-A13] (first compound 0.16 µM, partner dose 2 µM) | 131 | 61.6 | 43 | 61.3 | 43.8 | 125 | 19 | 80.7 | 121 | 98.7 | 69.1 | 102 | 59.8 | 88.7 | 121
6 | COc1ccc2c(c1)CCC1C2CCC2(C)C(NCCCCCCN3C(=O)C=CC3=O)CCC12 (stereo not drawn) + O=C(Oc1ccc([N+](=O)[O-])cc1)N1CCC(C(O)(c2ccc3c(c2)OCO3)c2ccc3c(c2)OCO3)CC1 [JZL184] (first compound 0.4 µM, partner dose 1 µM) | 70.1 | 71.2 | 233 | 50.5 | 143 | 99.2 | 65.1 | 151 | 39.5 | 50 | 107 | 115 | 83 | 95.1 | 116
7 | CN(NC(=O)CC(=O)NN(C)C(=S)c1ccccc1)C(=S)c1ccccc1 + C/C(O)=C(\C#N)C(=O)Nc1cc(Br)ccc1Br [LFM-A13] (first compound 0.006 µM, partner dose 2 µM) | 118 | 62.7 | 213 | 106 | 144 | 10.9 | 117 | 152 | 54.5 | 244 | 180 | 998 | 66 | 343 | 93.1
8 | C[C@]12O[C@H](C[C@]1(O)CO)n1c3ccccc3c3c4c(c5c6ccccc6n2c5c31)CNC4=O [Lestaurtinib] + Cc1cc(N2CCOCC2)cc2[nH]c(-c3c(NC[C@@H](O)c4cccc(Cl)c4)cc[nH]c3=O)nc12 [BMS536924] (first compound 0.004 µM, partner dose 0.2 µM) | 140 | 122 | 58.4 | 36.7 | 164 | 169 | 40.1 | 166 | 91.2 | 70.2 | 58.3 | 109 | 186 | 67.8 | 87.4
9 | OCCn1cc(-c2cnc3nnn(Cc4ccc5ncccc5c4)c3n2)cn1 + O=C(Oc1ccc([N+](=O)[O-])cc1)N1CCC(C(O)(c2ccc3c(c2)OCO3)c2ccc3c(c2)OCO3)CC1 [JZL184] (first compound 1 µM, partner dose 1 µM) | 105 | 30.1 | 42.1 | 53.3 | 73.8 | 27.8 | 72.5 | 120 | 105 | 178 | 81.4 | 119 | 359 | 69.2 | 77.9
10 | C#Cc1cccc(Nc2ncnc3cc(OCCOC)c(OCCOC)cc23)c1 [erlotinib] + C/C(O)=C(\C#N)C(=O)Nc1cc(Br)ccc1Br [LFM-A13] (first compound 0.8 µM, partner dose 2 µM) | 108 | 505 | 94.4 | 77.2 | 144 | 46.6 | 108 | 213 | 195 | 122 | 97.5 | 127 | 70.7 | 76.6 | 184
11 | CO[C@@H]1[C@H](N(C)C(=O)c2ccccc2)C[C@H]2O[C@]1(C)n1c3ccccc3c3c4c(c5c6ccccc6n2c5c31)C(=O)NC4 [Midostaurin] + O=C(Oc1ccc([N+](=O)[O-])cc1)N1CCC(C(O)(c2ccc3c(c2)OCO3)c2ccc3c(c2)OCO3)CC1 [JZL184] (first compound 0.08 µM, partner dose 1 µM) | 99.3 | 79.3 | 39.4 | 78.4 | 98.7 | 19.1 | 106 | 110 | 137 | 90.5 | 79.1 | 95.7 | 60.5 | 106 | 128
12 | CCc1ccc(CCOc2ccc(CC3SC(=O)NC3=O)cc2)nc1 (stereo not drawn) [pioglitazone] + Cc1cc(SCc2sc(-c3ccc(C(F)(F)F)c(F)c3)nc2C)ccc1OCC(=O)O [GW0742] (first compound 2 µM, partner dose 2 µM) | 29.5 | 111 | 176 | 83.7 | 361 | 21.1 | 43.4 | 169 | 31.6 | 143 | 157 | 110 | 186 | 66.5 | 43.3
13 | C/C(O)=C(\C#N)C(=O)Nc1cc(Br)ccc1Br + O=C1NC(=O)/C(=C/c2ccc(-c3ccc(F)cc3O)o2)S1 [AS252424] (first compound 2 µM, partner dose 1 µM) | 54.3 | 139 | 39.5 | 78.5 | 98.6 | 42.7 | 84.8 | 79.8 | 98.1 | 41.8 | 63.5 | 93.1 | 67.1 | 98.8 | 66.8
14 | NC(=O)Nc1cc(-c2cccc(F)c2)sc1C(=O)N[C@H]1CCCNC1 + C/C(O)=C(\C#N)C(=O)Nc1cc(Br)ccc1Br [LFM-A13] (first compound 0.02 µM, partner dose 2 µM) | 71.8 | 170 | 21.9 | 34.7 | 138 | 31.6 | 69.2 | 121 | 24.5 | 142 | 120 | 208 | 90.6 | 172 | 127
15 | O=C(Nc1ccccc1)c1cc([N+](=O)[O-])ccc1Cl + C/C(O)=C(\C#N)C(=O)Nc1cc(Br)ccc1Br [LFM-A13] (first compound 2 µM, partner dose 2 µM) | 254 | 34.2 | 142 | 45.3 | 262 | 10.4 | 64 | 225 | 41 | 305 | 147 | 115 | 34.4 | 72.1 | 168
16 | C[C@]12O[C@H](C[C@]1(O)CO)n1c3ccccc3c3c4c(c5c6ccccc6n2c5c31)CNC4=O [Lestaurtinib] + CCc1ccc(CCOc2ccc(CC3SC(=O)NC3=O)cc2)nc1 [pioglitazone] (first compound 0.004 µM, partner dose 2 µM) | 112 | 43.6 | 74.8 | 58.6 | 98.1 | 57.9 | 60.3 | 125 | 183 | 125 | 320 | 94.8 | 119 | 97 | 86.3
17 | O=C(Nc1ccccc1)c1cc([N+](=O)[O-])ccc1Cl + O=C(Oc1ccc([N+](=O)[O-])cc1)N1CCC(C(O)(c2ccc3c(c2)OCO3)c2ccc3c(c2)OCO3)CC1 [JZL184] (first compound 2 µM, partner dose 1 µM) | 70.6 | 98.9 | 85.5 | 49.7 | 157 | 64.1 | 60.4 | 80.1 | 86.3 | 273 | 121 | 88 | 66.2 | 78 | 131
18 | C[C@]12O[C@H](C[C@]1(O)CO)n1c3ccccc3c3c4c(c5c6ccccc6n2c5c31)CNC4=O [Lestaurtinib] + C=C(c1ccc(C(=O)O)cc1)c1cc2c(cc1C)C(C)(C)CCC2(C)C [Bexarotene] (first compound 0.004 µM, partner dose 2 µM) | 41.9 | 157 | 79.1 | 172 | 102 | 43.6 |  |  | 74.3 | 129 | 213 | 107 | 57.8 | 82.1 | 85

As entered above.
Entry of O=C(Nc1ccccc1)c1cc([N+](=O)[O-])ccc1Cl + C/C(O)=C(\C#N)C(=O)Nc1cc(Br)ccc1Br [LFM-A13] (first compound 2 µM, partner dose 2 µM) under cleaved PARP positive nuclei fraction (SkMel5) [%]: 64
Entry of C[C@]12O[C@H](C[C@]1(O)CO)n1c3ccccc3c3c4c(c5c6ccccc6n2c5c31)CNC4=O [Lestaurtinib] + CCc1ccc(CCOc2ccc(CC3SC(=O)NC3=O)cc2)nc1 [pioglitazone] (first compound 0.004 µM, partner dose 2 µM) under cleaved PARP positive nuclei fraction (RVH-421) [%]: 58.6
